PubChem BioAssay AID1159578, Peter MacCallum Cancer Centre | 2015
Test: 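Genome-wide hunt for genes controlling movement of lymphatic endothelial cells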 (primary screen). Cells: human lymphatic endothelial cells. Knock-down reagent: siRNA pool against human genes, 40 nM. Time to read-out: 48 h after transfection. Read-out: 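High-content imaging of dye-stained cells in a scratch assay measures filled wound area and nuclei per well; duplicate means given as ratio to mock and robust z-score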. Scale: migration robust z-score: higher = faster migration into the scratch; migration relative to mock: higher = more scratch area covered than mock; nuclei per well: higher = more cells in the well. Call rule: 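Migration changed when robust z exceeds 2 or falls below -2 and mean nuclei number is at least 3300; otherwise not called changed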. Calls: active = migration changed; inactive = no migration change, or too few cells.
Here is a random part of about 18,000 reagents. About 1,030 of all reagents (5.7%) count as active. 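Inactive calls also include pools with fewer than 3300 nuclei, whose migration was not assessed.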 Raw values are not corrected between plates. Unmarked entries are inactive.

gene	migration robust z-score	migration class with cell-count check	migration relative to mock	nuclei per well, duplicate mean
CDT1	1.6	migration z between -2 and 2; enough cells	1.3	5250
DBN1	0.26	migration z between -2 and 2; enough cells	0.95	6435
CASC3	1.02	migration z between -2 and 2; enough cells	1.15	7484
LMOD3	0.65	migration z between -2 and 2; enough cells	1.06	5749
BICRAL	0.45	migration z between -2 and 2; enough cells	1.01	5799
FAM241B	0.3	migration z between -2 and 2; enough cells	0.97	5874
PDZD8	-1.02	migration z between -2 and 2; enough cells	0.62	5483
LURAP1	-0.78	migration z between -2 and 2; enough cells	0.68	6078
SPDYE1	0.66	migration z between -2 and 2; enough cells	1.06	5802
PSAP	0.61	migration z between -2 and 2; enough cells	1.04	4428
RNASEK	-0.07	migration z between -2 and 2; enough cells	0.86	6346
KIF2A	-0.39	migration z between -2 and 2; enough cells	0.73	4920
GET3	1.38	migration z between -2 and 2; enough cells	1.07	6084
F11R	0.42	migration z between -2 and 2; enough cells	0.88	6054
ABTB2	-0.78	migration z between -2 and 2; enough cells	0.68	5607
NPAS4	1.94	migration z between -2 and 2; enough cells	1.18	6092
VSIR	1.16	migration z between -2 and 2; enough cells	1.18	4939
FKBP7	0.72	migration z between -2 and 2; enough cells	0.94	3770
CASS4	-1.62	migration z between -2 and 2; enough cells	0.46	6076
JADE3	-0.73	migration z between -2 and 2; enough cells	0.66	3650
ZP3	-0.76	migration z between -2 and 2; enough cells	0.69	6228
EPS8L2	1.03	migration z between -2 and 2; enough cells	1.16	4102
SOX18	-0.7	migration z between -2 and 2; enough cells	0.67	5034
QRSL1	0.18	migration z between -2 and 2; enough cells	0.84	6172
ASTN2	-0.85	migration z between -2 and 2; enough cells	0.67	4796
DDN	-0.09	migration z between -2 and 2; enough cells	0.86	5758
SLAMF7	0.62	migration z between -2 and 2; enough cells	1.04	5203
SPPL2B	0.05	migration z between -2 and 2; enough cells	0.81	5984
ATXN7L1	0.83	migration z between -2 and 2; enough cells	1.1	7065
GRAMD4	0.57	migration z between -2 and 2; enough cells	1.03	5710
SPDYC	1.41	migration z between -2 and 2; enough cells	1.25	6936
INKA2	-3.38	under 3300 nuclei; migration not judged	0.02	2696
SNRPD1	-2.59 (active)	migration z below -2; enough cells	0.22	3512
BSN	0.58	migration z between -2 and 2; enough cells	1.04	6160
SLIT2	-0.34	migration z between -2 and 2; enough cells	0.8	5152
IWS1	-0.19	migration z between -2 and 2; enough cells	0.83	6548
PLD2	0.49	migration z between -2 and 2; enough cells	0.9	6625
BPIFA3	0.75	migration z between -2 and 2; enough cells	1.08	6982
NNAT	-0.57	migration z between -2 and 2; enough cells	0.74	5668

Active calls, of those listed so far:
gene	migration robust z-score	migration class with cell-count check	migration relative to mock	nuclei per well, duplicate mean
SNRPD1	-2.59 (active)	migration z below -2; enough cells	0.22	3512
